Measurements reported in PubChem BioAssay AID493246 (Drosophila RNAi Screening Center, 2011)
In all, the deposit lists about 21,000 reagents; this is a random part of those with a known target gene and a result. In the full data, 429 (2%) got an active call. 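Values are raw and not normalised between plates; calls rest on per-plate z-scores that were not deposited.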 Reagents against one gene are numbered here. A plus sign joins genes that one reagent is predicted to hit. Not given: the amount of reagent, the time to read-out.

- Test: 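Genes fly cells need to grow and stay alive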 (primary screen)
- System: Drosophila Kc and S2R+ cells
- Reagents: long dsRNA against Drosophila genes
- Read-out: 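Cell number per well after knock-down, printed as raw plate values; calls were based on per-plate z-scores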
- Direction: Kc cell number and S2R+ cell number: higher = more cells remaining
- Rule for the call: 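Active when the per-plate z-score of cell number is 3 or more in the direction of fewer cells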

Rdh1
- Kc cell number, rep 1: 1.04e6
- Kc cell number, rep 2: 1.29e6
- S2R+ cell number, rep 1: 1.04e6
- S2R+ cell number, rep 2: 9.86e5
- call: inactive

CG31693
- Kc cell number, rep 1: 5.18e5
- S2R+ cell number, rep 1: 7.45e5
- call: inactive

Pp1alpha-96A
- Kc cell number, rep 1: 1.70e6
- Kc cell number, rep 2: 1.67e6
- S2R+ cell number, rep 1: 1.13e6
- S2R+ cell number, rep 2: 1.16e6
- call: inactive

Gnptab
- Kc cell number, rep 1: 1.53e6
- Kc cell number, rep 2: 1.63e6
- S2R+ cell number, rep 1: 1.41e6
- S2R+ cell number, rep 2: 1.49e6
- call: inactive

CG15865
- Kc cell number, rep 1: 1.46e6
- Kc cell number, rep 2: 1.46e6
- S2R+ cell number, rep 1: 1.04e6
- S2R+ cell number, rep 2: 1.12e6
- call: inactive

CG5068
- Kc cell number, rep 1: 1.30e6
- Kc cell number, rep 2: 1.35e6
- S2R+ cell number, rep 1: 1.21e6
- S2R+ cell number, rep 2: 1.18e6
- call: inactive

Naa30A
- Kc cell number, rep 1: 3.75e5
- S2R+ cell number, rep 1: 5.62e5
- call: inactive

CG31445
- Kc cell number, rep 1: 5.20e5
- S2R+ cell number, rep 1: 7.60e5
- call: inactive

CG8746
- Kc cell number, rep 1: 1.67e6
- Kc cell number, rep 2: 1.73e6
- S2R+ cell number, rep 1: 1.40e6
- S2R+ cell number, rep 2: 1.59e6
- call: inactive

CG34460
- Kc cell number, rep 1: 1.62e6
- Kc cell number, rep 2: 1.71e6
- S2R+ cell number, rep 1: 1.06e6
- S2R+ cell number, rep 2: 1.20e6
- call: inactive

Mob2 #1
- Kc cell number, rep 1: 1.49e6
- Kc cell number, rep 2: 1.58e6
- S2R+ cell number, rep 1: 8.68e5
- S2R+ cell number, rep 2: 1.01e6
- call: inactive

Mob2 #2
- Kc cell number, rep 1: 1.42e6
- Kc cell number, rep 2: 1.55e6
- S2R+ cell number, rep 1: 1.12e6
- S2R+ cell number, rep 2: 1.27e6
- call: inactive

Mob2 #3
- Kc cell number, rep 1: 1.37e6
- Kc cell number, rep 2: 1.47e6
- S2R+ cell number, rep 1: 1.05e6
- S2R+ cell number, rep 2: 9.43e5
- call: inactive

Cul5
- Kc cell number, rep 1: 1.49e6
- Kc cell number, rep 2: 1.55e6
- S2R+ cell number, rep 1: 1.10e6
- S2R+ cell number, rep 2: 1.16e6
- call: inactive

CadN2 + CG42830 #1
- Kc cell number, rep 1: 1.66e6
- Kc cell number, rep 2: 1.72e6
- S2R+ cell number, rep 1: 1.27e6
- S2R+ cell number, rep 2: 1.37e6
- call: inactive

CadN2 + CG42830 #2
- Kc cell number, rep 1: 1.60e6
- Kc cell number, rep 2: 1.66e6
- S2R+ cell number, rep 1: 1.21e6
- S2R+ cell number, rep 2: 1.39e6
- call: inactive

CadN2 + CG42830 #3
- Kc cell number, rep 1: 1.58e6
- Kc cell number, rep 2: 1.60e6
- S2R+ cell number, rep 1: 1.24e6
- S2R+ cell number, rep 2: 1.42e6
- call: inactive

dbe
- Kc cell number, rep 1: 1.46e6
- Kc cell number, rep 2: 1.46e6
- S2R+ cell number, rep 1: 9.78e5
- S2R+ cell number, rep 2: 1.09e6
- call: inactive

y
- Kc cell number, rep 1: 1.59e6
- Kc cell number, rep 2: 1.58e6
- S2R+ cell number, rep 1: 9.79e5
- S2R+ cell number, rep 2: 1.18e6
- call: inactive

CG5157
- Kc cell number, rep 1: 1.26e6
- Kc cell number, rep 2: 1.33e6
- S2R+ cell number, rep 1: 1.31e6
- S2R+ cell number, rep 2: 1.35e6
- call: inactive

yellow-g
- Kc cell number, rep 1: 1.44e6
- Kc cell number, rep 2: 1.29e6
- S2R+ cell number, rep 1: 9.90e5
- S2R+ cell number, rep 2: 1.22e6
- call: inactive
